No constants are given. Whether binding was seen depends on the method and setting. In cells and extracts the contact can be indirect. Some results given as binding are weak or reduced against the parent protein; the word gives no strength. Tags and fused reporters may be left off the sequences shown.
Target: T1, HA-tagged IKKe (inhibitor of nuclear factor kappa-B kinase epsilon) (UniProt Q14164)
T1 sequence: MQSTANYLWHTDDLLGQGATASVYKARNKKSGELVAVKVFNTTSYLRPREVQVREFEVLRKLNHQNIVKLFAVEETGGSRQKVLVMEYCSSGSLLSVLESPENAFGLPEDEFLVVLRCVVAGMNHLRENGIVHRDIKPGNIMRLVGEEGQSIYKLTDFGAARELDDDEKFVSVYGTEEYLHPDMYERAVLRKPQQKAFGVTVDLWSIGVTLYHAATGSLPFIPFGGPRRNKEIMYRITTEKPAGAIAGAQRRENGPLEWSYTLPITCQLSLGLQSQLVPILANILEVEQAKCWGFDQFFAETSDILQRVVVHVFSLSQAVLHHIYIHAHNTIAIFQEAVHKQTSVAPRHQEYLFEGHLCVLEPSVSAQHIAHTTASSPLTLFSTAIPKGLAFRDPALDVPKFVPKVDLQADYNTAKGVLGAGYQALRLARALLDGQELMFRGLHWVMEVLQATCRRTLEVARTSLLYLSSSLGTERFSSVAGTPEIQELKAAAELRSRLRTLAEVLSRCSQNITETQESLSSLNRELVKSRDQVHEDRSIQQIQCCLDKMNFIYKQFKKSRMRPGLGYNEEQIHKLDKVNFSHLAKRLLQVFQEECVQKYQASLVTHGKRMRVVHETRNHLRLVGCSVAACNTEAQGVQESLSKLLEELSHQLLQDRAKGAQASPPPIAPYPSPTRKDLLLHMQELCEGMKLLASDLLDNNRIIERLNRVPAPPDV
Assay: co-IP; HEK293T cells co-transfected with HA-IKKe and Myc-NIK, with MG132; immunoprecipitation with HA-tag antibody, immunoblot with NIK (or Myc) antibody

Amino acid sequences for entries named in this document (tags omitted).
UniProt Q99558: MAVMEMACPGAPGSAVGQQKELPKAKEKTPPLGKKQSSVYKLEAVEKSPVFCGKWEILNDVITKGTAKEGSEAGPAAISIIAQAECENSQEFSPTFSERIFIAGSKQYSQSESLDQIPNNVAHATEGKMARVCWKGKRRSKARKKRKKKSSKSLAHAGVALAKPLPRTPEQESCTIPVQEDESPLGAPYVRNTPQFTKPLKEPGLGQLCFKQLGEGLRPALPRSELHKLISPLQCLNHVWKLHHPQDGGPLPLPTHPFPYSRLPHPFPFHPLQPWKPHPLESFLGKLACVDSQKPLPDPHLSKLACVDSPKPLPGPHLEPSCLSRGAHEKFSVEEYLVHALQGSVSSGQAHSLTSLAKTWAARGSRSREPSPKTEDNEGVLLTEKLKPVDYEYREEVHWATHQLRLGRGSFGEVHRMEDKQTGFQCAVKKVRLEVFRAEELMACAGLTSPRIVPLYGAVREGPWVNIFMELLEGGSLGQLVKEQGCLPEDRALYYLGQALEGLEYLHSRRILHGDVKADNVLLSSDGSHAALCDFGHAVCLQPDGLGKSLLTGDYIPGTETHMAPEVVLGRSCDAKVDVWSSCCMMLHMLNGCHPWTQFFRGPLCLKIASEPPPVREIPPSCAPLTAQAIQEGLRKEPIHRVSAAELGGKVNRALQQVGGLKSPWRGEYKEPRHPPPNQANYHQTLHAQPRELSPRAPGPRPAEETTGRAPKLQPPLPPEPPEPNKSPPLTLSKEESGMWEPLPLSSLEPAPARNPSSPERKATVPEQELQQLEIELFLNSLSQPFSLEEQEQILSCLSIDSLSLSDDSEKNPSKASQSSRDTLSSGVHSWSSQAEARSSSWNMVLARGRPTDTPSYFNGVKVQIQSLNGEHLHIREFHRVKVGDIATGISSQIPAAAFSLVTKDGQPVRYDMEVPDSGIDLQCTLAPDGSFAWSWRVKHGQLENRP

binding: binds
Substance: Myc-tagged NIK (NF-κB-inducing kinase, MAP3K14) (from UniProt Q99558 1-947)
